Reference: publication PMC4906169
Results are given in words; binding and its absence hold for the method and conditions named. In cells and extracts the contact can be indirect. Where a sequence is shown, tags or fusion partners need not be part of it.

Assays:
Experiment in all cases: split reporter; BiFC with Yn/Yc halves of VENUS fused to the N-termini; transient co-expression in N. benthamiana epidermal leaf cells, imaged by confocal microscopy 62 h after infiltration
[1] = target: T1, STELLO1 (STL1), BiFC fusion (Yn-STL1 / Yc-STL1) (Arabidopsis thaliana) (UniProt O22943)
T1 sequence: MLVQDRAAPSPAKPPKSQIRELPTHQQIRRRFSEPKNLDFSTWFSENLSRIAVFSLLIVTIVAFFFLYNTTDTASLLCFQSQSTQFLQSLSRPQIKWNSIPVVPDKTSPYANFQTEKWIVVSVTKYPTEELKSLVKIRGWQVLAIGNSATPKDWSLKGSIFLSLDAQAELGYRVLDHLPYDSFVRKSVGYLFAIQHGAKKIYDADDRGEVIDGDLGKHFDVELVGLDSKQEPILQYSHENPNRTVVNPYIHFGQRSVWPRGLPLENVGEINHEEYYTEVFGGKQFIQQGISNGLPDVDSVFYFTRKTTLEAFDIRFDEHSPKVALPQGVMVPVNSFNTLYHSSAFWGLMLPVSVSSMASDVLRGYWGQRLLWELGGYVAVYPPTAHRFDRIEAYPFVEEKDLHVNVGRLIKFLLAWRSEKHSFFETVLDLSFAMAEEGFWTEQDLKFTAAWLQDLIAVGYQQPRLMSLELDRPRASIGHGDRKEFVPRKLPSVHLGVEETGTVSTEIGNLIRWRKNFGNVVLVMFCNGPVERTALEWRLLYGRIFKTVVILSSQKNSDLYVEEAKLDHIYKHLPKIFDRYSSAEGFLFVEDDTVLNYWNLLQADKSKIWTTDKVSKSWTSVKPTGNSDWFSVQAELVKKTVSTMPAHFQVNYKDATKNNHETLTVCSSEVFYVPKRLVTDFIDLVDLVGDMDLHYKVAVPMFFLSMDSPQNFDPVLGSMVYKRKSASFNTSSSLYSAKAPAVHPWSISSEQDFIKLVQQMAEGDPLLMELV

[2] = target: T2, STELLO2 (STL2), BiFC fusion (Yn-STL2 / Yc-STL2) (Arabidopsis thaliana) (UniProt Q9SCN0)
T2 sequence: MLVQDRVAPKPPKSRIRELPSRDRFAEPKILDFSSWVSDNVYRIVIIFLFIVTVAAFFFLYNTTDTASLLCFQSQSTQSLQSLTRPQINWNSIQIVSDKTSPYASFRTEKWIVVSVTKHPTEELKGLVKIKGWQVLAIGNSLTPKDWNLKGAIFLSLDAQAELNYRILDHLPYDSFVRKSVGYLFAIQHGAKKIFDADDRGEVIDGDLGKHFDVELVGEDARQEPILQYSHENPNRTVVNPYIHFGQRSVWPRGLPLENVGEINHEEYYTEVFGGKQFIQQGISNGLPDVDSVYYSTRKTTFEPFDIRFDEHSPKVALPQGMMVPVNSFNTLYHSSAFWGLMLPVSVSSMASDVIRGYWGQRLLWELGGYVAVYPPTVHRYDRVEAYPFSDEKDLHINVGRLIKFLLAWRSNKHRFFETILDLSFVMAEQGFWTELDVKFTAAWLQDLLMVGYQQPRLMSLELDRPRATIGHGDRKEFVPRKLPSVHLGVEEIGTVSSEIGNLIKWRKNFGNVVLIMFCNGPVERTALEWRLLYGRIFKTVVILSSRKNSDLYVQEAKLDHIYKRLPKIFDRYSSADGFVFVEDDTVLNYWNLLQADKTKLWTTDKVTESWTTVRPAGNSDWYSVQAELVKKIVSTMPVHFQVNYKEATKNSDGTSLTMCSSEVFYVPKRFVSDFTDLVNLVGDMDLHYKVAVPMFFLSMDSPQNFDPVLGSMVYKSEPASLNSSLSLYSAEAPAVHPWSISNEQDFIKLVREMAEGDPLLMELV

[3] = target: T3, Cellulose synthase CesA3, BiFC fusion (Arabidopsis thaliana) (UniProt Q941L0)
T3 sequence: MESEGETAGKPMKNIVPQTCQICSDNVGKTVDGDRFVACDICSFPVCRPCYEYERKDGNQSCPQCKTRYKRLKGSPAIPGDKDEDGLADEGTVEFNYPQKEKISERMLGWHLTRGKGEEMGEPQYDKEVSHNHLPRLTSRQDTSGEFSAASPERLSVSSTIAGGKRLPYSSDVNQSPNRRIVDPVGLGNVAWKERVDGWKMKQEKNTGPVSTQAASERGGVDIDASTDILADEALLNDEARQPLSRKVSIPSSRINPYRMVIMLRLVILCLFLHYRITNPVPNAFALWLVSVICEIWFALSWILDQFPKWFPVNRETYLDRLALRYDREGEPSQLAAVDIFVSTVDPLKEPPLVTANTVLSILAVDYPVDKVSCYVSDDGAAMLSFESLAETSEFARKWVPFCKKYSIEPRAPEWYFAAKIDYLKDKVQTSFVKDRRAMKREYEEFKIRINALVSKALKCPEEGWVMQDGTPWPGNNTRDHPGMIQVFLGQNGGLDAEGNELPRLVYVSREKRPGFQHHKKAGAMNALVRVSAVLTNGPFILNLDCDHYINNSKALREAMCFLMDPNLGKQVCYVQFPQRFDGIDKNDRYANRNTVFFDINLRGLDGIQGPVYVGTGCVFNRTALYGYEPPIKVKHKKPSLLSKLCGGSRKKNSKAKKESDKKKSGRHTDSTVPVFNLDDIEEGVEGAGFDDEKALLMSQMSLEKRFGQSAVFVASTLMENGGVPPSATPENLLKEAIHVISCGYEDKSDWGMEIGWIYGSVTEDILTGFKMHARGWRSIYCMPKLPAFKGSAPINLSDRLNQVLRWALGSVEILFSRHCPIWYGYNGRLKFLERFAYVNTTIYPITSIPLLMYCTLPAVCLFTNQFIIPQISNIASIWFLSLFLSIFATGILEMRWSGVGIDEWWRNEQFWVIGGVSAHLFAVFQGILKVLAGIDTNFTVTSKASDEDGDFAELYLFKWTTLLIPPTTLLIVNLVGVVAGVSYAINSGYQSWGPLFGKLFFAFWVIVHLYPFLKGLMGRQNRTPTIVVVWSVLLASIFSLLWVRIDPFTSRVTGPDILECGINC

Measured: binding

B1: Got1p Arabidopsis homologue, BiFC fusion (protein, UniProt Q6NMM1 1-140)
chain: MASLEMNDLKKIGLGLTGFGVFFTFLGVIFVFDKGLIAMGNILFLAGVTLTIGINPAIQFFTKRQNFKGTISFGLGFLLVVFGWPIFGLLLESYGFLVLFSGFWPTLAVFLQRIPLLGWLLQQPYIRSLLDRYRGRRVPV
no binding: [1] | [2] | [3]
